These are yes or no findings as the source states them, for the method shown. Binding seen in cells or lysates may run through a third protein.
Target: T1, VAMP‐associated protein A (human (endogenous in HCCLM3‐BM4)) (UniProt Q9P0L0)
T1 sequence: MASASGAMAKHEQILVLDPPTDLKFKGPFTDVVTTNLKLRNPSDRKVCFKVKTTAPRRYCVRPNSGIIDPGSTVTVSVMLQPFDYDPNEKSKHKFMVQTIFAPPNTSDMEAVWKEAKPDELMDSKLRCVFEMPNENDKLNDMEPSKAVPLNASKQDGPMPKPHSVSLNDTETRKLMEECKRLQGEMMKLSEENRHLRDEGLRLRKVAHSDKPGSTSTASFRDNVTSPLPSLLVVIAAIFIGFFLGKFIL
Experiment: co-IP; endogenous proteins in HCCLM3‐BM4 cells and in LOs derived from HCCLM3‐BM4 cells (Figure 1I, Figure S2A)

binding: no binding
B1: cytokeratin 18 (protein, UniProt P05783 1-430)
chain: MSFTTRSTFSTNYRSLGSVQAPSYGARPVSSAASVYAGAGGSGSRISVSRSTSFRGGMGSGGLATGIAGGLAGMGGIQNEKETMQSLNDRLASYLDRVRSLETENRRLESKIREHLEKKGPQVRDWSHYFKIIEDLRAQIFANTVDNARIVLQIDNARLAADDFRVKYETELAMRQSVENDIHGLRKVIDDTNITRLQLETEIEALKEELLFMKKNHEEEVKGLQAQIASSGLTVEVDAPKSQDLAKIMADIRAQYDELARKNREELDKYWSQQIEESTTVVTTQSAEVGAAETTLTELRRTVQSLEIDLDSMRNLKASLENSLREVEARYALQMEQLNGILLHLESELAQTRAEGQRQAQEYEALLNIKVKLEAEIATYRRLLEDGEDFNLGDALDSSNSMQTIQKTTTRRIVDGKVVSETNDTKVLRH

Source: article PMC9631052
